Assay results taken from paper doi:10.1101/598128 (bioRxiv, 2019).
Substitutions are numbered along the chain they refer to. Names may count otherwise. These are yes or no findings as the source states them, for the method shown. For part of these data: In cells and extracts the contact can be indirect. Some results given as binding are weak or reduced against the parent protein; the word gives no strength. Tags and fused reporters may be left off the sequences shown.

Assays:
[1] = target: T1, Orc1 (yeast two-hybrid fusion) (budding yeast) (UniProt P54784); assay: two-hybrid
T1 sequence: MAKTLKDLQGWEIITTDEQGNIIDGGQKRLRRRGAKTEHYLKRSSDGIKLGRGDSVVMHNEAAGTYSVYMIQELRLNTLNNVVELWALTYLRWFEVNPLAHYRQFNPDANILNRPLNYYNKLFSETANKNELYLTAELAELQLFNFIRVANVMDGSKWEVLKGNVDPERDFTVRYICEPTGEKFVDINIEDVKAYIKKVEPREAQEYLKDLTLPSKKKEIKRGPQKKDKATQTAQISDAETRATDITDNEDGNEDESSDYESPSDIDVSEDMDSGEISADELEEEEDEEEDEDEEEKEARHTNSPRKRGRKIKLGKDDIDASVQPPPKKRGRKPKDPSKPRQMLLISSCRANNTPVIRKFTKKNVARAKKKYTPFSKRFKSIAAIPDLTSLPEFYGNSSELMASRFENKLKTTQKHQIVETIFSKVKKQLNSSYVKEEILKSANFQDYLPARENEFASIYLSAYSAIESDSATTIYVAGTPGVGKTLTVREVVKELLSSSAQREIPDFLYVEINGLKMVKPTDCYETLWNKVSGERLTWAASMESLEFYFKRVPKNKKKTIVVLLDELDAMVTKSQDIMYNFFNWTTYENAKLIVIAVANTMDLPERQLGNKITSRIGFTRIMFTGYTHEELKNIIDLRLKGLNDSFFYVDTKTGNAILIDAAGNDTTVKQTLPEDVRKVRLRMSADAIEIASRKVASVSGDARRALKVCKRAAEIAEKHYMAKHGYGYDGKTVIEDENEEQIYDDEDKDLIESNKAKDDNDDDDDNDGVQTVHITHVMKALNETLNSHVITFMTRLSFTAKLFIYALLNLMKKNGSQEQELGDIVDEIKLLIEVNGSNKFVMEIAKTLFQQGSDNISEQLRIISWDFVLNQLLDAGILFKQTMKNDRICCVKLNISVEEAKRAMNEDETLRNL

[2] = target: T2, Orc4 (yeast two-hybrid fusion) (budding yeast) (UniProt P54791); assay: two-hybrid
T2 sequence: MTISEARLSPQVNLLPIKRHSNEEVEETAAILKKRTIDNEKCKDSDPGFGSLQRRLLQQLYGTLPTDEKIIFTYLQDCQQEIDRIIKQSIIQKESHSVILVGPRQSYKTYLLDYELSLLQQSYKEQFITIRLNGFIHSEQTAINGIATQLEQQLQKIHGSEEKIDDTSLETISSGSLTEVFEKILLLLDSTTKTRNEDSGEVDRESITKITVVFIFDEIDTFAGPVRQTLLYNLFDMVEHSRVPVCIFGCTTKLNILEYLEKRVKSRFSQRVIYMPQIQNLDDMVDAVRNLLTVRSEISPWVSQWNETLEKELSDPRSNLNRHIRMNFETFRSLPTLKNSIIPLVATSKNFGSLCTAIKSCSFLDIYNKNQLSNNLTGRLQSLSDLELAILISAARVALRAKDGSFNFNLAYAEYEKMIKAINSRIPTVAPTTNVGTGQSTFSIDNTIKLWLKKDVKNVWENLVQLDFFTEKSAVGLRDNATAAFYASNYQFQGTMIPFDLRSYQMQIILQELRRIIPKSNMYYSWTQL

[3] = target: T3, Orc3 (yeast two-hybrid fusion) (budding yeast) (UniProt P54790); assay: two-hybrid
T3 sequence: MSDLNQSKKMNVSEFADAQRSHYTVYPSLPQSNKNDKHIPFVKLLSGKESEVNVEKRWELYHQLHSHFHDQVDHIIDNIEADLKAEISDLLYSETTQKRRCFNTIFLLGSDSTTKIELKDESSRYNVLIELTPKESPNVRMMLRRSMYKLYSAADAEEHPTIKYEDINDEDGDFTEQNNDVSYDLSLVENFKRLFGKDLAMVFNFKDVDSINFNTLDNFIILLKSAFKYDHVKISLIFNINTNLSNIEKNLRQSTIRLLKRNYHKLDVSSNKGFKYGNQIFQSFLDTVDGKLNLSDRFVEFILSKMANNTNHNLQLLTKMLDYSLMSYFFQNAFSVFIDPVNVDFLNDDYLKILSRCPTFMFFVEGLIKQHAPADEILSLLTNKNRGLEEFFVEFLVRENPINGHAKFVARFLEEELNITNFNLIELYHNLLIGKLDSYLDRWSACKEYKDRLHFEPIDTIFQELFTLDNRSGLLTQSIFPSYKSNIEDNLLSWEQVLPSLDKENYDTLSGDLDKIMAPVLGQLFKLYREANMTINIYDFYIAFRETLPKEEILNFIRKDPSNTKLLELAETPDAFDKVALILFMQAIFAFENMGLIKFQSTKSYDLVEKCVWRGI

[4] = target: T4, Orc2 (precipitated with α-Orc2) (budding yeast (endogenous in SK1 meiotic cells)) (UniProt P32833); assay: co-IP
T4 sequence: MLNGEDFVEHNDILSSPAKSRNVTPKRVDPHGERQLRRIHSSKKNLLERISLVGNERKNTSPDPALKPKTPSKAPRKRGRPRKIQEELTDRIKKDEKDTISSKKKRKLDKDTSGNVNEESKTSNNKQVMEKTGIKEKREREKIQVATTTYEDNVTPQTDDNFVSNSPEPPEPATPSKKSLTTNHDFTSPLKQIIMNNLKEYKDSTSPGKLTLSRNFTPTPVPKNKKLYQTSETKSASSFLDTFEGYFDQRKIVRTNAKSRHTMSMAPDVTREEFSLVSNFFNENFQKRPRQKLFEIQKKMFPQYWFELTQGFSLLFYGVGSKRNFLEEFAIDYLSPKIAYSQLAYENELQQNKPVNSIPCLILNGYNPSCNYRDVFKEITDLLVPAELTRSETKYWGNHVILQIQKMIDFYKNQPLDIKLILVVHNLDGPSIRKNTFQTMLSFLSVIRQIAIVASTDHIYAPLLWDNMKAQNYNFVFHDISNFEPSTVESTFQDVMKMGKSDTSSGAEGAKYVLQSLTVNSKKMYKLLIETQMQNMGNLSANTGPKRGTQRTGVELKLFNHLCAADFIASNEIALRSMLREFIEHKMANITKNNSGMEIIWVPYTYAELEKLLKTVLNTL

[5] = target: T5, Pch2-E399Q (budding yeast) (UniProt P38126); assay: co-IP
T5 sequence: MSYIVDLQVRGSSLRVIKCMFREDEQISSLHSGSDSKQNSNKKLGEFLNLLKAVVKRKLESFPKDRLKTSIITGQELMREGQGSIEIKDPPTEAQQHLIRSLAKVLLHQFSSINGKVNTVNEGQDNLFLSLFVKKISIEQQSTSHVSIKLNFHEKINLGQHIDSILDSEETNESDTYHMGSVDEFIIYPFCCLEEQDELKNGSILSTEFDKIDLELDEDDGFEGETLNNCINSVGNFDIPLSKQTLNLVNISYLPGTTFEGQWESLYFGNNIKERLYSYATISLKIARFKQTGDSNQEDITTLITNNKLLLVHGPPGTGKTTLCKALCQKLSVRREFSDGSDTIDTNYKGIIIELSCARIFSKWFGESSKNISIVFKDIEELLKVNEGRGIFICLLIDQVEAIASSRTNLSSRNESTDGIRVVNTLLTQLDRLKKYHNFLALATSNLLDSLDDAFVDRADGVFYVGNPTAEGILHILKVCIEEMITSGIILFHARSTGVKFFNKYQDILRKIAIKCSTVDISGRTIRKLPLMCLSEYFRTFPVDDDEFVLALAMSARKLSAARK

[6] = target: His-MBP-Pch2-2-144 (budding yeast) (UniProt P38126); assay: SEC

B1: Pch2 full length (yeast two-hybrid fusion) (protein, UniProt P38126 1-564)
chain: T5 sequence with Q399E
With B1 the binding [1] was “binds”, the binding [2] was “no binding” and the binding [3] was “no binding”.

B2: 3xFLAG-tagged Pch2-E399Q (protein, UniProt P38126 1-564)
chain: T5 sequence
B2 was tested, and the binding [4] was “binds”.

B3: Orc1 (found with Pch2-E399Q in the α-HA IP and in the mass-spectrometric analysis) (protein, UniProt P54784 1-914)
chain: T1 sequence
With B3 the binding [5] was “binds”.

B4: His-MBP-Pch2-2-144 (domain or fragment, UniProt P38126 2-144)
chain: SYIVDLQVRGSSLRVIKCMFREDEQISSLHSGSDSKQNSNKKLGEFLNLLKAVVKRKLESFPKDRLKTSIITGQELMREGQGSIEIKDPPTEAQQHLIRSLAKVLLHQFSSINGKVNTVNEGQDNLFLSLFVKKISIEQQSTS
B4 was tested, and the binding [6] was “no binding (tested: 6 μM)”.
